Measurements as given in publication PMC6294118 (Pharmaceutical research, 2018).

Target: T1, hOCT1 (Homo sapiens, UniProt O15245)
T1 sequence (O15245 1-554): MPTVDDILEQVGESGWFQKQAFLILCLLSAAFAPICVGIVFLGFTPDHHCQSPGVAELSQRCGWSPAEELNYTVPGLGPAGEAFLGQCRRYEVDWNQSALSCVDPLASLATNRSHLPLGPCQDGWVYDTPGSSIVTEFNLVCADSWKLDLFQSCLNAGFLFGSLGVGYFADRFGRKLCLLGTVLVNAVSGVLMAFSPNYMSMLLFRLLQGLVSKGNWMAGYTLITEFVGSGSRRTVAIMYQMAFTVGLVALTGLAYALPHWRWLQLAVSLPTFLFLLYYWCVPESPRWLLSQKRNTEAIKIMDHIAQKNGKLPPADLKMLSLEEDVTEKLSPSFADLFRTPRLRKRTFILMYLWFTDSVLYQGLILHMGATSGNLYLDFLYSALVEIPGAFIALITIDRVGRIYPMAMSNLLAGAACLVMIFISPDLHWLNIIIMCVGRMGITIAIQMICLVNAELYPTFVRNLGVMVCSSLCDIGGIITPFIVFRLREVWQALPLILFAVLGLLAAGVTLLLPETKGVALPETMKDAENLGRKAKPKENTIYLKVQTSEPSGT
Details: HEK293-hOCT1 vs HEK293-mock; 0.2 μM morphine, 2 min

CN1CC[C@]23c4c5ccc(O)c4O[C@H]2[C@@H](O)C=C[C@H]3[C@H]1C5 [morphine]
Uptake of morphine, fold relative to mock cells: 3.56 fold
